In PubChem BioAssay AID504327 (National Center for Advancing Translational Sciences (NCATS), 2011):
Screen size: about 390,000 compounds; about 820 (0.21%) were called active. The inconclusive results got no clear call from the source; some entries with a clear call stand among them for comparison. The call rests on the fitted dose curve; in most records, active means well fitted inhibition curve with a large enough effect; inconclusive means small, poorly fitted or top-dose-only effect, or another doubt; inactive means no such curve, though single readings can be large or run the other way. Where the call is inconclusive, the potency comes from a doubtful curve fit.

The chains behind the UniProt entries cited, without tags or fusion partners.
UniProt Q92830, whole entry, looked up: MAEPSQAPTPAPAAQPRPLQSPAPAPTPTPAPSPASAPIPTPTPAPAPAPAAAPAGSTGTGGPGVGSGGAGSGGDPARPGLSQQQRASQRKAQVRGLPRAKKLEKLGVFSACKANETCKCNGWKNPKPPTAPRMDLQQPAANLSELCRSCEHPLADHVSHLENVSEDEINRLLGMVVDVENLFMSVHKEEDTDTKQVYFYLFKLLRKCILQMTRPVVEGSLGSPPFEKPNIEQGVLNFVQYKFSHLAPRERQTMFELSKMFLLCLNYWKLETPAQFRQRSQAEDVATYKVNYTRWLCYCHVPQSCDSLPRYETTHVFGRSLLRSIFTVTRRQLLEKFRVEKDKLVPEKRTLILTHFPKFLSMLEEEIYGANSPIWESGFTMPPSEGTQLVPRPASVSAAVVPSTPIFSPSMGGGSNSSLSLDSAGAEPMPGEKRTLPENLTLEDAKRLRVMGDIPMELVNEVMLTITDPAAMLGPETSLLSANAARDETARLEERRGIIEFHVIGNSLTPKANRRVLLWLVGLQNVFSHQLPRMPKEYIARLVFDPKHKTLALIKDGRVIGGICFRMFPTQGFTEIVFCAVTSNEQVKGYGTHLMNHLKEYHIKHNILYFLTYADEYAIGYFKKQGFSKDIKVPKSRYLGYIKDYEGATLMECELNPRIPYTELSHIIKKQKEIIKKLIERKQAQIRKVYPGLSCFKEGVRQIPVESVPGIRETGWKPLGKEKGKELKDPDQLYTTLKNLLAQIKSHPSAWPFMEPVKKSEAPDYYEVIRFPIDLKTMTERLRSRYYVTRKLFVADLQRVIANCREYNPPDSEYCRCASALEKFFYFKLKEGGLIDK

The compounds below were run against Histone acetyltransferase KAT2A (Homo sapiens) (UniProt Q92830) (assay: qHTS Assay for Inhibitors of GCN5L2). Conditions: GCN5L2 HAT assay, ThioGlo1 CoA-SH fluorescence; activity change, negative = inhibition: at 58.9 µM (top of the series) unless noted.
Outline: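 Enzyme at 20nM final was mixed with library compounds for 15 min at room temperature. Peptide H3(1-25) at 75uM, acetyl-CoA at 70uM and ThioGlo1 at 50uM were then added. Plates were read immediately and after 20 min (Ex340nm/Em540nm).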
On the % scale 0 is the no-effect control and ±100 the full control effect; potency means the concentration at half of the fitted maximal effect.

SMILES | Potency | activity change, negative = inhibition
CC(=O)Nc1ccc(S(=O)(=O)N2CCC(c3nnc(-c4ccc(C)cc4)o3)CC2)cc1 | inconclusive: 0.794 µM [inhibitor, full curve, poor fit] | –
O=C1c2cccnc2C(=O)N1CNc1ccc(Cl)cc1 | – | inactive: 1.61%
COCCNC(=O)CCC1CCN(C/C=C/c2ccccc2OC)CC1 | inconclusive: 0.708 µM [inhibitor, single point] | –
Cc1ccc(-c2onc3ccc(C(=O)/C=C/N(C)C)cc23)cc1 | inconclusive: 39.8 µM [inhibitor, single point] | –
OCCOC[C@H]1O[C@H](OCCO)[C@H](OCCO)[C@@H](OCCO)[C@@H]1OCCO (tested in a mixture with another compound) | – | inactive: 0.929%
CCc1ccc(C2(C)SC(NC(C)=O)=NN2C(C)=O)cc1 (centres undefined) | inconclusive: 0.562 µM [inhibitor, single point] | –
CC(C)c1nc2sc3c(=O)[nH]c(=S)[nH]c3c2c2c1CCC2 | inconclusive: 25.1 µM [inhibitor, single point] | –
CC(=O)Nc1ccc(/C=N/NC(=O)c2cc(-c3ccco3)nc3ccccc23)cc1 | inconclusive: 3.98 µM [inhibitor, partial curve] | –
Cc1cc(=O)n2c3ccccc3n(C)c2n1 | inconclusive: 39.8 µM [inhibitor, single point] | –
COc1cc2c(cc1OC)-c1cc(OCc3cccnc3)nc(=O)n1CC2 | inconclusive: 35.5 µM [inhibitor, single point] | –
COc1ccc(OC)c(C(=O)NC(CC(N)=O)c2ccc(N3CCCCCC3)c([N+](=O)[O-])c2)c1 (centres undefined) | inconclusive: 3.16 µM [inhibitor, single point] | –
COc1cccc(OCc2cc(C(=O)N3CCN(c4ccccc4O)CC3)no2)c1 | inconclusive: 25.1 µM [inhibitor, single point] | –
COc1ccc(Oc2ncc3nc(-c4cccs4)c(=O)n(Cc4cccc(OC)c4)c3n2)cc1 | inconclusive: 12.6 µM [inhibitor, partial curve] | –
CCn1cc(CNCc2cn(-c3ccccc3C)nc2-c2ccc(OC)c(F)c2)cn1 | inconclusive: 8.91 µM [inhibitor, single point] | –
C[C@H](CO)N1C[C@H](C)[C@@H](CN(C)S(=O)(=O)c2ccc(F)cc2)Oc2ccc(NS(=O)(=O)c3cccs3)cc2C1=O | inconclusive: 31.6 µM [inhibitor, single point] | –
Cc1cc(C(=O)N/N=C/c2cc([N+](=O)[O-])cc(C)c2O)n[nH]1 | inconclusive: 31.6 µM [inhibitor, single point] | –
CC(C)CNC(=O)COC(=O)CCC(=O)c1ccc(F)cc1 | – | inactive: -4.83%
O=C(CCN1C(=O)/C(=C\c2ccccc2F)SC1=S)N1CCCCC1 | inconclusive: 3.98 µM [inhibitor, partial curve, poor fit] | –
Cc1cccc(N2CCN(C(=O)Cn3ncc4c3-c3cc(C)ccc3OC4)CC2C)c1 (centres undefined) | – | inactive: -5.54%
COc1ccccc1N1CCN(CCCCNC(=O)c2ccc3ccccc3c2)CC1 | inconclusive: 31.6 µM [inhibitor, single point] | –
Cc1ccc2c(=O)c3ccccc3n(CCCN)c2c1C | inconclusive: 2.24 µM [inhibitor, partial curve, poor fit] | –
O=C(Cn1ncc2c3ccccc3n(Cc3cccc(Cl)c3)c2c1=O)NCCCc1ccccc1 | inconclusive: 25.1 µM [inhibitor, partial curve] | –
NC(=O)C1(C(N)=O)OC1c1ccc(Cl)c(Cl)c1 (centres undefined) | inconclusive: 39.8 µM [inhibitor, single point] | –

SMILES | Potency | activity change, negative = inhibition
CC(C)CNC(=O)c1ccccc1NC(=O)CSCc1ccccc1 | – | inconclusive: -88.5% [inhibitor] [at 0.501 µM]
O=C(COc1ccccc1)NC1CCCN(Cc2ccccc2F)C1 (centres undefined) | inconclusive: 3.16 µM [inhibitor, partial curve] | –
Cc1cccc(CNc2ncnc3ccc(-c4cccnc4)cc23)c1 | inconclusive: 39.8 µM [inhibitor, partial curve] | –
CC(C)c1nnc(NC(=O)CCN2C(=O)c3ccccc3C2=O)s1 | inconclusive: 39.8 µM [inhibitor, single point] | –
Cc1ncoc1C(=O)NC1CCCc2c1cnn2-c1ccc(C(C)(C)C)cc1 (centres undefined) | – | inactive: -15.5%
Cc1ccc(C(=O)N2CCN3C(=O)c4ccccc4C23c2ccccc2)cc1 (centres undefined) | inconclusive: 4.47 µM [inhibitor, single point] | –
S=C1NC[C@H](CC2CCCCC2)N1CCc1cccc2ccccc12 | – | inactive: -24.5%
O=C(O)c1cc(NN=Nc2cccc(S(=O)(=O)O)c2)cc([N+](=O)[O-])c1 | – | inactive: -3.32%
O=C(C1=C(O)C(=O)N(CCN2CCOCC2)C1c1cccc(O)c1)c1cc2ccccc2o1 (centres undefined) | inconclusive: 8.91 µM [inhibitor, full curve, poor fit] | –
CN1CC(=O)N(CC(=O)Nc2cccc3ccccc23)C1=O | – | inactive: 3.62%
CC(C)NC(=O)N1CCC2(CC1)CCN(C(=O)c1ccncc1)CC2 | inconclusive: 3.98 µM [inhibitor, partial curve] | –
O=C(NCCc1ccc(F)cc1)C(=O)NCC(c1cccs1)S(=O)(=O)c1ccc(Cl)cc1 (centres undefined) | – | inactive: 7.16%
O=C(O)c1cc([N+](=O)[O-])ccc1NCCc1ccccc1 | inconclusive: 3.55 µM [inhibitor, single point] | –
CCc1ccccc1NC(=O)CN1C(=O)C2CCCN2c2ccc(S(=O)(=O)N(CC)CC)cc21 (centres undefined) | inconclusive: 25.1 µM [inhibitor, single point] | –
CC(C)CCNC(=O)c1cnn2c(C(F)(F)F)cc(-c3ccco3)nc12 | – | inactive: -13.5%
CN1CC(O)C2=CC(=O)C(=O)C=C21 (centres undefined) | active: 14.1 µM | –
CN=c1scc(C)n1/N=C/c1ccc(O)cc1O | inconclusive: 0.794 µM [inhibitor, single point] | –
CC(C)(C)NC(=O)Cn1c(SCC(N)=O)nc2ccccc21 | inconclusive: 8.91 µM [inhibitor, single point] | –
Cc1ccc(NC(=O)CCC(=O)NNC(=O)Nc2cccc(Cl)c2)c(C)c1 | inconclusive: 3.98 µM [inhibitor, partial curve] | –
COc1ccc([C@H]2C(C#N)=C([S-])N[C@](C)(O)[C@@H]2[n+]2ccccc2)cc1 | – | inactive: -4.31%
O=C(C1CCC(=O)N1Cc1ccccc1Cl)N1CCN(c2ccc(F)cc2)CC1 (centres undefined) | inconclusive: 39.8 µM [inhibitor, single point] | –
Cc1cc(N2CCOCC2)nc(SCC(=O)c2ccc(Cl)cc2)n1 | – | inactive: -2.19%
Cc1ccc2sc(-c3ccc(NC(=O)/C=C\C(=O)O)cc3)nc2c1 | inconclusive: 35.5 µM [inhibitor, single point] | –

SMILES | Potency | activity change, negative = inhibition
O=C(C(c1ccccc1)c1ccccc1)N1CC[C@@]2(O)CCCC[C@H]2C1 | – | inactive: 0.434%
Cc1ccccc1C(=O)Nc1sc(C)c(C)c1C(=O)c1ccccc1 | – | inactive: -10.4%
Cc1ccc(CNC(=S)Nc2ccc(NS(=O)(=O)c3ccc(C)cc3)cc2)cc1 | inconclusive: 0.112 µM [inhibitor, full curve, poor fit] | –
O=C(Nc1ccc(Cl)cc1)N1CCC(CO)(Cc2ccccc2)CC1 | – | inactive: -9.75%
Cc1nc(NS(=O)(=O)c2ccccc2)sc1NC(=O)OC(C)C | inconclusive: 20 µM [inhibitor, single point] | –
COC(=O)c1ccc(CN(c2ccccn2)S(=O)(=O)c2ccccc2)cc1 | inconclusive: 0.562 µM [inhibitor, single point] | –
CC(C)(C)NC(=O)Cc1ccc(S(=O)(=O)N2CCCC2)s1 | inconclusive: 25.1 µM [inhibitor, partial curve, poor fit] | –
CCN1/C(=C\C(=S)Nc2ccccc2)Sc2ccccc21 | – | inactive: -11.7%
CN(c1ccc(OCC(=O)OCC(=O)Nc2ccccc2)cc1)S(=O)(=O)c1cccs1 | active: 10 µM | –
COc1cc(OC)cc(-c2c(-c3ccc(F)cc3)c3cc(-c4cccc5[nH]ccc45)ccc3n2C)c1 | inconclusive: 25.1 µM [inhibitor, single point] | –
Cc1ccc(C2=NC(c3ccc(F)cc3)=Nc3ccc(C)cc3N2)cc1 | – | inactive: 0.495%
O=C(NCc1ccccn1)c1cc(-c2ccccc2)nc2ccccc12 | – | inactive: -2.54%
CC(/C=C1\SC(=Nc2cccnc2)NC1=O)=C\c1ccccc1 | – | inactive: -12.8%
COc1ccc(-c2cc(C#N)nc(Oc3ccc(Cl)cc3)n2)cc1 | inconclusive: 0.316 µM [inhibitor, full curve, poor fit] | –
CC(C)n1nnnc1SCC(=O)N1CCN(C(=O)c2ccco2)CC1 | inconclusive: 2.82 µM [inhibitor, partial curve] | –
Fc1ccc(C(CCNCc2ccccn2)c2ccc(Cl)cc2)cc1 (centres undefined) | – | inactive: -23.7%
Cc1ccc(-c2noc(CNC(=O)COc3ccccc3C)n2)cc1 | inconclusive: 8.91 µM [inhibitor, single point] | –
Cc1ccc(C2CC(=O)N3CN(c4ccc(Br)cc4)CSC3=C2C#N)o1 (centres undefined) | inconclusive: 10 µM [inhibitor, partial curve] | –
COc1ccc2c(Cl)c(-c3nnc(SCC(=O)c4ccccc4)n3C)sc2c1 | – | inactive: 0.749%
CCCCC(=O)N1CCN(c2nc3ccc(F)cc3s2)CC1 | inconclusive: 7.08 µM [inhibitor, single point] | –
Cc1ccc(OCC(=O)N2N=C(c3ccc(Cl)cc3)CC2c2ccco2)c([N+](=O)[O-])n1 (centres undefined) | – | inactive: -6.95%
Fc1ccc(-c2cnc(-c3cccs3)o2)cc1 | inconclusive: 28.2 µM [inhibitor, single point] | –
Cc1ccc(C)n1-c1sc2c(c1C(=O)O)CCCC2 | inconclusive: 28.2 µM [inhibitor, single point] | –

Entries above with a tert-butyl group (3):
SMILES | Potency | activity change, negative = inhibition
Cc1ncoc1C(=O)NC1CCCc2c1cnn2-c1ccc(C(C)(C)C)cc1 (centres undefined) | – | inactive: -15.5%
CC(C)(C)NC(=O)Cn1c(SCC(N)=O)nc2ccccc21 | inconclusive: 8.91 µM [inhibitor, single point] | –
CC(C)(C)NC(=O)Cc1ccc(S(=O)(=O)N2CCCC2)s1 | inconclusive: 25.1 µM [inhibitor, partial curve, poor fit] | –
